These are yes or no findings as the source states them, for the method shown. Binding seen in cells or lysates may run through a third protein. These calls come from enrichment with a bait or labelling near it, and not all partners need be listed.
Target: 1M3U agglomerating mutant fused to YFP, as used for the pull-down (UniProt P31057)
Experiment: affinity purification with mass spectrometry; pull-down of the YFP tag from yeast lysate with magnetic agarose beads (RFP-Trap Magnetic Agarose kit, ChromoTek), in-bead trypsin digestion, LC-MS/MS; enriched fraction of the agglomerating mutant compared with that of the wild type; three biological replicates

Sequences of proteins named here, by UniProt entry; tags and fusion partners are left off. A change or cut given only in a name is not applied to a line headed by its entry.
UniProt P31057: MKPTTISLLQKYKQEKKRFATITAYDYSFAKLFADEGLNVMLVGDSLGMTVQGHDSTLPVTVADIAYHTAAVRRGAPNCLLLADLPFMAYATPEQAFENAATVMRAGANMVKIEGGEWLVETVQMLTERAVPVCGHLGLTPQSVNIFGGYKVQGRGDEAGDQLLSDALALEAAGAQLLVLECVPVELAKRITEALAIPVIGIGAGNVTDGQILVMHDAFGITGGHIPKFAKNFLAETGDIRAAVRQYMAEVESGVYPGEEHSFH

binding: binds
B1: ASP1, a cytosolic L-asparaginase (enzyme, UniProt P38986 1-381)
chain: MKSDSVEITTICPDVENSQFVVQSNCPETIPEILKSQNAAVNGSGIACQQRSLPRIKILGTGGTIASKAIDSSQTAGYHVDLTIQDLLDAIPDISKVCDIEYEQLCNVDSKDINEDILYKIYKGVSESLQAFDGIVITHGTDTLSETAFFIESTIDAGDVPIVFVGSMRPSTSVSADGPMNLYQAICIASNPKSRGRGVLVSLNDQISSGYYITKTNANSLDSFNVRQGYLGNFVNNEIHYYYPPVKPQGCHKFKLRVDGKHFKLPEVCILYAHQAFPPAIVNLVADKYDGIVLATMGAGSLPEEVNETCMKLSLPIVYSKRSMDGMVPIANVPKKGSKEDNLIASGYLSPEKSRILLQLCLAGNYTLEEIKHVFTGVYGG

Reference: article PMC12494878
